Among the data in publication PMC7819943, “Rice protein-binding microarrays: a tool to detect cis-acting elements near promoter regions in rice” are binding signal values, retold here.

The chains behind the UniProt entries cited, without tags or fusion partners.
UniProt Q0JBA9, entry or part of it: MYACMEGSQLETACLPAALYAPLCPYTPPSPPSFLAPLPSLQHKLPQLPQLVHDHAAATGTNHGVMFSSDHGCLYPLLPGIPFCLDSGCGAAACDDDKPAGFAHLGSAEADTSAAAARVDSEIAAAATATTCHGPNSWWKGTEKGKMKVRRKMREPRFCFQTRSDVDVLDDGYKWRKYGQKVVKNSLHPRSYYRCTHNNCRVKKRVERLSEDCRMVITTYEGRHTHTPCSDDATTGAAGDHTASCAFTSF

Some of the results follow.

This experiment addresses OsWRKY34 (Oryza sativa, UniProt Q0JBA9 1-250). Put plainly: protein-binding microarray (RPBM); PBS, 2% BSA, 51.3 ng/ul salmon testes DNA, 50 uM zinc acetate, 200 nM TF, 25 C, 1 h; high values mean tight binding. The conditions noted are these: protein: recombinant; tags: N-terminal polyhistidine and DsRed monomer fusion (pET32a); label: CyDye5-dUTP incorporated in the synthesized complementary strand; 3' TTTTT single-stranded linker to array surface; dsDNA, one strand shown. The method, boiled down:
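Transcription factors were each fused at the N-terminus to a polyhistidine tag plus DsRed and expressed in E. coli BL21-CodonPlus before Ni–NTA purification. Binding to a double-stranded custom Agilent array was carried out with 200 nM protein at 25 °C for 1 h in PBS, 2% BSA, salmon testes DNA and 50 µM zinc acetate. The binding signal is per-feature fluorescence intensity, in arbitrary units, on an Axon 4000B scanner.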
Regarding “CAAATTACTTCCTTTTCAAAATCTAGGATACCGTTGACTTCGGAGTCACCTAGTGCAG”, the binding signal was 9460 fluorescence intensity (a.u.).
For the sequence “ACTTCTCATTGCCATGTGCAAAAATCTTCATCCTACTGCTCGGAGTCACCTAGTGCAG”, the binding signal is 9340 fluorescence intensity (a.u.).
In the case of “CTTATCTCCTGCATATGCCGTGGCCTGATCTGGACGCCGTCGGAGTCACCTAGTGCAG”, the binding signal was 9560 fluorescence intensity (a.u.).
Consider “TCCGTTCCAAGGGTTTCCTCGCGCCGCCGCCGCCGCCATGCGGAGTCACCTAGTGCAG”, for which the binding signal was 8140 fluorescence intensity (a.u.).
Turning to “TGGTGTAGGGTTATGATTGGATGAGTAGTGGAGGTAGGTACGGAGTCACCTAGTGCAG”, the binding signal was 9780 fluorescence intensity (a.u.).
“CTCTCCTCTTCTTGGCAATTATTGCCACCTTTGGAGTTTGCGGAGTCACCTAGTGCAG”: the binding signal was 8600 fluorescence intensity (a.u.).
Turning to “TTTCACATCATTCGTCTCTTAGCACTTCTGTCACTGTGGACGGAGTCACCTAGTGCAG”, the binding signal was 9160 fluorescence intensity (a.u.).
Next, “GCCGTTAAAAATCTAAAAAGTTTGACCATGTTATCTGCATCGGAGTCACCTAGTGCAG”: 8470 fluorescence intensity (a.u.).
As for “ACCTCGTCGACGTGCTCAGTTCCGGCCGTTCACCGCCGCCCGGAGTCACCTAGTGCAG”, the binding signal is 11000 fluorescence intensity (a.u.).
In the case of “GTCACTGTTCCTTGCTTACAGCTGCAGCTTTGCAGGTCCCCGGAGTCACCTAGTGCAG”, the binding signal was 8750 fluorescence intensity (a.u.).
“TAGGTTTGCGTCTTGCCGTGGCGGAGTTGGGCTGGGCTCGCGGAGTCACCTAGTGCAG”: the binding signal is 8210 fluorescence intensity (a.u.).
With “TCCCTCCGTTTTTTAATAGATGATGCCGTTGACTTTTTCTCGGAGTCACCTAGTGCAG”, the binding signal is 19300 fluorescence intensity (a.u.).
Next, “TGCTGAGGTGGTGGGACTGTGGAATGGGGACTTACAGGGTCGGAGTCACCTAGTGCAG”: 8720 fluorescence intensity (a.u.); “CGATTTCCACGCCATGTCCGTAGCCGTTTTTTTTTTCTTACGGAGTCACCTAGTGCAG”: 13600 fluorescence intensity (a.u.).
With “GCCTTAGGGAGGGTGGTGTGCTCTGGTAGTAGACGACATGCGGAGTCACCTAGTGCAG”, the binding signal was 11800 fluorescence intensity (a.u.).
Take “GTATTCATGTCAATCTATTCTACACTCAAGTTGTTGACTTCGGAGTCACCTAGTGCAG”: the binding signal is 8040 fluorescence intensity (a.u.).
“CGGCCGCCGCTGGTTTCGTTTCTTTCCTCTCGCCGCCGCCCGGAGTCACCTAGTGCAG”: the binding signal was 9020 fluorescence intensity (a.u.).
On to “CCGGCGTGGCGACGTCAGTACTCTCTTCTGCTTCATTTCTCGGAGTCACCTAGTGCAG”, for which the binding signal was 12500 fluorescence intensity (a.u.).
Take “TTCATAGCCGCCGCATCTCCTTCTCTTCGACTTTTCTCCTCGGAGTCACCTAGTGCAG”: the binding signal was 9080 fluorescence intensity (a.u.).
With “AGTCACTTCTTTCATAACTTTATCCACTTGTGCCTCTTAACGGAGTCACCTAGTGCAG”, the binding signal is 8850 fluorescence intensity (a.u.).
With “CGATCAAGATCATGATTCGTCGCCCAAAATGCACAAGCCTCGGAGTCACCTAGTGCAG”, the binding signal is 8060 fluorescence intensity (a.u.).
Take “ATTTGAATAGTATTTTATGTCTGACTTATTTTTTATTTTTCGGAGTCACCTAGTGCAG”: the binding signal is 8250 fluorescence intensity (a.u.).
With “CCTGGTGTCCTCCTTGGGTTCGGGGAGGCGGCGGCGGCGCCGGAGTCACCTAGTGCAG” the figure was 8900 fluorescence intensity (a.u.).
Turning to “GCGCGCATGCCCCGTTTTTTGCGTGCGTGTGGTTTCCAACCGGAGTCACCTAGTGCAG”, the binding signal is 8170 fluorescence intensity (a.u.).
“TCTCACTGACATGTGGGCCCCACCTTTAGAAACGCTTTCTCGGAGTCACCTAGTGCAG”: the binding signal is 8550 fluorescence intensity (a.u.).
Turning to “ACCGTTTCTTGGCCTAGATCCGACCGCGTTTACGGTTCTTCGGAGTCACCTAGTGCAG”, the binding signal is 8340 fluorescence intensity (a.u.).
Turning to “AGGGGCTTCTGGTTTACCCTTTATTCAATCGCACAAGGATCGGAGTCACCTAGTGCAG”, the binding signal is 8530 fluorescence intensity (a.u.).
For “GTCGTGGTGGGCTGAGATGATGATGTGGTGGCATGTTCCCCGGAGTCACCTAGTGCAG”, the binding signal is 9340 fluorescence intensity (a.u.).
Turning to “GAATATAGTTTAGGTCCATACATCCATACCCTTTTTACATCGGAGTCACCTAGTGCAG”, the binding signal was 11600 fluorescence intensity (a.u.).
Regarding “GATTTCTCTCGTTCTTCACGCGCATGCTTCCTGAACTACTCGGAGTCACCTAGTGCAG”, the binding signal was 11100 fluorescence intensity (a.u.).
With “GCTGTCACTGTCGTTACACATGTATTAGTACTACGATTACCGGAGTCACCTAGTGCAG”, the binding signal was 9490 fluorescence intensity (a.u.).
Next, “TCATAGTATCGCACTATCAATTTCATTCTCTTGTTCCTCACGGAGTCACCTAGTGCAG”: 11000 fluorescence intensity (a.u.); “CGCCCTTTTGTACAATGTAAATGTAGCAATTGCCATTATTCGGAGTCACCTAGTGCAG”: 8830 fluorescence intensity (a.u.).
With “ATGGTGTTATGAATCAAACTATCAACTCTTTATGTCTTATCGGAGTCACCTAGTGCAG” the figure was 10000 fluorescence intensity (a.u.); with “CCGAGCACCGGGCCCACCTGTCATCGACGCCATGCCCTTTCGGAGTCACCTAGTGCAG”, 8740 fluorescence intensity (a.u.).
Consider “GGACTTTACTTCTCGTGTTGTCTGTGTTGACTCAAAATTGCGGAGTCACCTAGTGCAG”, for which the binding signal is 9960 fluorescence intensity (a.u.).
Turning to “ACACGTTTATTCAGACTTGTTCCAAATTACCAGAGAATTGCGGAGTCACCTAGTGCAG”, the binding signal is 8110 fluorescence intensity (a.u.).
Turning to “GAAGCTTCCTCGTCGTCCTTTGTTGGGTTGGGTTGGGTTGCGGAGTCACCTAGTGCAG”, the binding signal is 21000 fluorescence intensity (a.u.).
For “AGTGCCTGCGTGGTGGTTCTTTCAGGGTGCTTATCGTCAACGGAGTCACCTAGTGCAG”, the binding signal is 10200 fluorescence intensity (a.u.).
In the case of “GAGAGCACCGGCGCGGGGTCGGGGAGGGAGAGGTGCGCGACGGAGTCACCTAGTGCAG”, the binding signal is 10900 fluorescence intensity (a.u.).
For the sequence “GGTTGAAGTTTTTGGCAGGGGTTAGTTTCGAAATAAGTTTCGGAGTCACCTAGTGCAG”, the binding signal is 17900 fluorescence intensity (a.u.).
As for “GACTTCCAATTTACTATGTTTATTACAAGCCTATCCACTACGGAGTCACCTAGTGCAG”, the binding signal was 8070 fluorescence intensity (a.u.).
